The nature of this assay: qHTS Assay to Find Inhibitors of Chronic Active B-Cell Receptor Signaling. To be noted: ABC-DLBCL IkBa-CBG/CBR reporter, luminescence ratio (green luciferase fused to IkBa over red control in TMD8 lymphoma cells), 4 h. The essentials:
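Concentration-response series (up to 46 uM) were applied to TMD8 dual-reporter cells for 4 h at 37C with doxycycline. Green/red ratio, after filter-overlap correction, defined %Activity; red signal alone was normalised to basal cells and zero luminescence.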
In general terms: qHTS replaces the single test concentration by a dilution series.

Where [1] appears, read: measured here: CBR red luminescence, cell number.
Setting [2] is: measured here: IkBa-CBG green luminescence.

Each structure is given as a SMILES string. Some of the results follow. The main result of the screen is listed elsewhere. These columns were measured beside it and carry no call. Most of these compounds were active or inconclusive in the main read-out, so they are no random draw. The note in brackets gives the kind of curve behind each potency; many fits are weak.

As for `COc1ccc(OC)c(-c2cc(C3CCN(c4ncccc4[N+](=O)[O-])CC3)[nH]n2)c1`, the AC50 under setting [1] is 11.2 µM [falling, partial curve, poor fit]. With `CN1C(=O)C(=Cc2sc(=O)n(-c3ccccc3)c2N2CCCCC2)C(=O)N(C)C1=O`, the AC50 under setting [1] was 7.94 µM [falling, partial curve]. Consider `Cc1cc(/C=C2/C(=O)NC(=O)N(Cc3ccco3)C2=O)c(C)n1-c1ccccc1O`, for which the AC50 under setting [1] is 0.708 µM [falling, full curve, poor fit]. With `CCOc1ccc(N(CC(=O)Nc2cccc(Cl)c2)S(=O)(=O)c2c(C)noc2C)cc1`, the AC50 under setting [1] is 35.5 µM [falling, single point]. `O=C(COc1ccc(Cl)cc1)N(c1ccc(Cl)cc1)C1CN2CCC1CC2` (configuration not stated): under setting [1], the AC50 is 12.6 µM [falling, partial curve]. As for `CC(C)(C)NC(=O)COC(=O)CCC(=O)c1ccc(F)cc1`, the AC50 under setting [1] was 20 µM [rising, partial curve, poor fit]. As to `Cc1nc2ccccc2c(=O)n1-c1ccc([N+](=O)[O-])cc1`, the AC50 under setting [1] was 20 µM [rising, partial curve, poor fit].

Turning to `CCN1C(=O)/C(=C\c2ccc([N+](=O)[O-])s2)C(=O)NC1=S`, the AC50 under setting [1] is 5.62 µM [falling, single point]. Consider `COc1ccc(-c2cc(=O)c3c(OC)c(OC)c(OC)cc3o2)cc1`, for which the AC50 is, setting by setting: under setting [1], 5.62 µM [falling, partial curve]; under setting [2], 22.4 µM [rising, partial curve, poor fit]. Take `Oc1ccc2c3c1O[C@H]1c4[nH]c5ccccc5c4C[C@@]4(O)[C@@H](C2)N(CC2CC2)CC[C@]314`: the AC50 under setting [1] is 18.4 µM [falling, partial curve, poor fit]. On to `COc1ccc(C(=O)c2nc3ccccc3n2C(C)C)cc1OC`, for which, under setting [1], the AC50 is 20 µM [rising, single point]. For the compound `O=C(Nc1ccccc1)c1cc([N+](=O)[O-])ccc1N1CCNCC1`, the AC50 under setting [1] was 11.2 µM [rising, partial curve]. Take `O=C(Nc1ccc2c(c1)OCO2)c1cccn(Cc2ccc(F)cc2)c1=O`: the AC50 under setting [1] is 0.398 µM [falling, full curve, poor fit]. Turning to `Cc1ccc(C2=NCC(=O)Nc3ccc(Br)cc32)cc1`, the AC50 by setting is: under setting [1], 17.8 µM [rising, partial curve, poor fit]; under setting [2], 12.6 µM [falling, partial curve, poor fit]. On to `CN1CC(C(=O)c2ccc(Cl)cc2)C(c2ccc(N(C)C)cc2)C1` (configuration not stated), for which, under setting [1], the AC50 is 35.5 µM [falling, single point]. Regarding `COc1ccc(NC(=O)c2cc([N+](=O)[O-])ccc2N2CCNCC2)cc1`, under setting [1], the AC50 is 10 µM [falling, partial curve, poor fit].

On to `OC(c1ccccc1)(c1ccc(Cl)cc1)C1CN2CCC1CC2` (configuration not stated), for which, under setting [1], the AC50 is 22.4 µM [falling, single point]. Turning to `COc1cccc(/C=C2\SC(=S)N(CCC(=O)NCCc3ccc(O)cc3)C2=O)c1`, under setting [1], the AC50 was 11.2 µM [falling, partial curve, poor fit].

As for `O=C1CC(=O)N(c2ccccc2)C(=O)N1c1ccccc1`, the AC50 under setting [1] was 20 µM [falling, single point]. With `C/C(=N\NC(=O)c1ccccc1O)c1c(O)n(Cc2ccccc2)c(=O)[nH]c1=O`, the AC50 under setting [1] was 10 µM [falling, partial curve].

As to `N=C1c2ccccc2CN1NC(=O)c1ccccc1`, the AC50 under setting [1] was 20.6 µM [falling, partial curve]. As for `CCOc1ccc(Br)c(C2(O)CC(C)N(C)CC2C)c1` (configuration not stated), the AC50 under setting [1] was 32.6 µM [falling, single point]. Turning to `CC1=CC(=Cc2sc3ccccc3[n+]2C)C=C(C)O1`, the AC50 under setting [1] was 3.55 µM [rising, partial curve, poor fit]. With `COc1ccc(C(=O)CC2C(=O)N(C)C(=O)N(C)C2=O)cc1`, the AC50 is 18.4 µM [falling, single point] under setting [1] and 25.9 µM [rising, partial curve, poor fit] under setting [2].

Take `CC(=O)c1cccc(NC(=S)NCc2ccco2)c1`: the AC50 under setting [1] was 6.31 µM [rising, single point]. The same measure, in the same setting: for `CS(=O)(=O)N1CCN(C(=N)N[N+](=O)[O-])CC1` the value was 10 µM [falling, partial curve, poor fit]. Turning to `COc1ccc(C)cc1NC(=O)c1c(C)nn(Cc2ccccc2)c1Cl`, under setting [1], the AC50 is 13 µM [falling, partial curve]. With `CCOC(=O)N1C(=O)[C@](c2ccc(Cl)cc2)(C(C)C)N1C(=O)OCC`, the AC50 under setting [1] was 12.6 µM [falling, partial curve]. Consider `COC(=O)C1=C(c2ccccc2OCc2ccccc2)C[C@@H]2CC[C@H]1N2C(=O)NCc1ccc(F)cc1`, for which, under setting [1], the AC50 is 18.4 µM [falling, single point]. Consider `CN1C(=O)CN=C(c2ccc(Cl)cc2)c2cc(Cl)ccc21`, for which the AC50 under setting [1] is 7.94 µM [falling, partial curve] and the concentration at half-maximal activity (AC50) under setting [2] was 18.4 µM [falling, partial curve]. In the case of `COC(=O)C1=C(c2ccccc2OCc2ccccc2)C[C@@H]2CC[C@H]1N2C(=O)NCc1cccc(F)c1`, the AC50 under setting [1] was 11.6 µM [falling, partial curve]. Turning to `OC(COCc1ccc(Cl)cc1)CN1CC=C(c2ccccc2)CC1` (configuration not stated), under setting [1], the AC50 was 35.5 µM [falling, single point]. `CCOc1ccc(-n2c(/C=C/c3ccccc3)nc3ccccc3c2=O)cc1`: the AC50 under setting [1] is 0.112 µM [falling, full curve, poor fit].

Consider `O=C(NCCCN1CCCC1)c1ccc2c(Cl)c3c(nc2c1)CCCC3`, for which, under setting [1], the concentration at half-maximal activity (AC50) was 10 µM [falling, partial curve, poor fit]. The same measure, in the same setting: with `Cc1nc2ccccc2c(=O)n1-c1cc([N+](=O)[O-])cc([N+](=O)[O-])c1` the figure was 14.1 µM [rising, single point]; with `COc1cc2nc(Nc3ccc(F)cc3)nc(N)c2cc1OC`, 10 µM [falling, partial curve, poor fit]. Regarding `Cc1ccc(-n2c(O)c(C=Nc3ccc(S(N)(=O)=O)cc3)c(=O)[nH]c2=O)cc1`, the AC50 under setting [1] was 35.5 µM [falling, single point]. Still for that read-out and setting: for `O=C(Nc1cccnc1)c1cc(-c2cccc(Br)c2)nc2ccccc12` the value was 35.5 µM [falling, single point].

The term AC50 denotes the concentration giving half of the maximal activity seen.
